PubChem BioAssay AID504774 | Drosophila RNAi Screening Center, 2011
Screen: 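Fly genes whose loss alters survival after alkylation damage to DNA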 (primary screen). Cell system: Drosophila Kc167 cells. Reagent: long dsRNA against Drosophila genes, about 0.25 µg dsRNA per well. Duration: about 6 days: 3 days knock-down, then 3 days with or without MMS. Challenge: methyl methanesulphonate 0.004% (w/v) for 3 days after knock-down. Measured: 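Viability in wells given MMS, read as ATP luminescence, normalised by quantiles plate by plate and averaged across replicates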. Direction: mean viability with MMS and viability with MMS: higher = more surviving cells after MMS.
In all, the deposit lists about 23,000 reagents; shown is a random part of those that have a named target and a result. 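Values are quantile-normalised luminescence on an arbitrary scale; higher means more cells surviving MMS.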 Names joined by + are all predicted targets of the reagent.

| Target gene | dsRNA | mean viability with MMS | viability with MMS, replicate 1 | viability with MMS, replicate 2 |
| --- | --- | --- | --- | --- |
| CG42583 | DRSC22937 | 3.57e6 | 3.99e6 | 4.08e6 |
| CG15282 | DRSC22620 | 3.60e6 | 4.07e6 | 4.04e6 |
| CG15282 | DRSC23090 | 3.34e6 | 3.65e6 | 3.95e6 |
| flip (flippy) | DRSC12326 | 3.62e6 | 4.03e6 | 4.17e6 |
| LpR1 (Lipophorin receptor 1) | DRSC15665 | 3.72e6 | 4.29e6 | 4.11e6 |
| LpR1 (Lipophorin receptor 1) | DRSC15669 | 3.82e6 | 4.16e6 | 4.47e6 |
| LpR1 (Lipophorin receptor 1) | DRSC15670 | 3.62e6 | 4.21e6 | 4.01e6 |
| vir (virilizer) | DRSC04377 | 3.65e6 | 4.00e6 | 4.27e6 |
| Cht7 + tRNA:Cys-GCA-1-4 + tRNA:Lys-CTT-1-13 | DRSC08021 | 3.37e6 | 3.89e6 | 3.72e6 |
| CG31855 | DRSC02968 | 3.44e6 | 3.86e6 | 3.94e6 |
| barr (barren) | DRSC03488 | 3.31e6 | 3.74e6 | 3.74e6 |
| Pglym78 (Phosphoglyceromutase 78) | DRSC16787 | 3.66e6 | 4.08e6 | 4.19e6 |
| CG14300 | DRSC14779 | 3.49e6 | 3.83e6 | 4.10e6 |
| hog | DRSC19057 | 3.28e6 | 3.76e6 | 3.76e6 |
| chas (chascon) | DRSC19508 | 3.61e6 | 4.10e6 | 4.07e6 |
| chas (chascon) | DRSC19509 | 3.76e6 | 4.22e6 | 4.16e6 |
| obst-I (obstructor-I) | DRSC08339 | 3.41e6 | 3.88e6 | 3.88e6 |
| CG4629 | DRSC00659 | 3.66e6 | 4.07e6 | 4.26e6 |
| CG32668 | DRSC18879 | 3.36e6 | 3.94e6 | 3.67e6 |
| Tbcc (Tubulin-binding cofactor C) | DRSC00223 | 3.39e6 | 3.96e6 | 3.78e6 |
| Jon65Aii (Jonah 65Aii) | DRSC10665 | 3.74e6 | 4.16e6 | 4.30e6 |
| CG12377 (retired record) | DRSC11671 | 3.30e6 | 3.70e6 | 3.75e6 |
| CG12377 (retired record) | DRSC11672 | 3.28e6 | 3.69e6 | 3.74e6 |
| Prosbeta2R2 (Proteasome beta2 subunit-related 2) | DRSC12193 | 3.61e6 | 4.05e6 | 4.13e6 |
| Arc42 (Activator-recruited cofactor subunit 42) | DRSC14340 | 3.52e6 | 3.98e6 | 4.01e6 |
| Arc42 (Activator-recruited cofactor subunit 42) | DRSC15627 | 3.53e6 | 3.91e6 | 4.10e6 |
| CG33673 | DRSC00084 | 3.43e6 | 3.86e6 | 3.96e6 |
| w-cup (world cup) | DRSC03048 | 3.39e6 | 4.07e6 | 3.58e6 |

2 entries already listed, ordered by “viability with MMS, replicate 2”, ascending:
| Target gene | dsRNA | mean viability with MMS | viability with MMS, replicate 1 | viability with MMS, replicate 2 |
| --- | --- | --- | --- | --- |
| Cht7 + tRNA:Cys-GCA-1-4 + tRNA:Lys-CTT-1-13 | DRSC08021 | 3.37e6 | 3.89e6 | 3.72e6 |
| CG31855 | DRSC02968 | 3.44e6 | 3.86e6 | 3.94e6 |
